Data as given in US6617425B1 (Novartis AG, priority 1996, dated 2003).

Columns and labels:
[1] = general procedure: Fmoc solid-phase peptide synthesis; ortho-chloro-trityl chloride resin; EDC/HOBt/NMM (solution-phase examples); details: for crude yield: whole synthesis, scale of the general procedure 150 mg resin (1.05 mmol Cl-/g)
[2] = Fmoc solid-phase peptide synthesis; ortho-chloro-trityl chloride resin; EDC/HOBt/NMM (solution-phase examples); details: whole synthesis

Substance | step yield ([1]; late stage modification step, Trifluoroacetate) [%] | step yield ([1]; coupling step) [%] | crude mass [2] [mg] | crude yield [1] [%]
(R)-Aminomethylvalyl-(R)-aminomethylalanyl-(R)-aminomethylleucyl-(R)-aminomethylvalyl-(R)-aminomethylalanyl-(R)-aminomethylleucinate Trifluoroacetate | 96 | – | – | –
Benzyl N-[(tert-Butoxy)carbonyl]-(R)-aminomethylvalyl-(R)-aminomethylalanyl-(R)aminomethylleucyl-(R)-aminomethylvalyl-(R)-aminomethyl alanyl-(R)-aminomethyl leucinate | – | 69 | – | –
H-β^2-HVal-β^2-HAla-β^2-HLeu-β^2-HPhe-β^2-HVal-β^2-HAla-β^2-HLeu-OH | – | – | 60 | 79
H-β^3-HVal-β^3-HAla-β^3-HLeu-β^3-HPhe-β^3-HVal-β^3-HAla-β^3-HLeu-OH | – | – | 68 | 89
